Measurements reported in PubChem BioAssay AID493014 (National Center for Advancing Translational Sciences (NCATS), 2011).
The other results are listed elsewhere or left out. Shown are side measurements of this screen, not its main read-out; they come without a call. Compounds called inactive in the main read-out are mostly missing here. Words in brackets tell the shape of the fitted curve; partial curves, single points and poor fits give uncertain potencies.

Experiment: qHTS Assay to Find Inhibitors of Chronic Active B-Cell Receptor Signaling
Conditions: ABC-DLBCL IkBa-CBG/CBR reporter, luminescence ratio (green luciferase fused to IkBa over red control in TMD8 lymphoma cells), 4 h
Outline: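 Doxycycline induced both beetle luciferases in TMD8 lymphoma cells; IKK-driven degradation limits the IkappaBalpha-fused green signal, while red luminescence normalises for cell number and nonspecific effects. Compounds tested up to 46 uM, 4 hrs.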

[1] = measured here: CBR red luminescence, cell number

Row | Compound | AC50 [1] | AC50 (measured here: IkBa-CBG green luminescence)
1 | CCC12CN3CCN(CC(C3)/C1=N\NC(=O)c1ccc(F)cc1)C2 | 0.316 µM [falling, partial curve, poor fit] | –
2 | O=C(NNc1nc(Nc2ccccc2)nc(N2CCOCC2)n1)Nc1ccc(Cl)cc1 | 5.62 µM [rising, partial curve] | –
3 | COc1ccc(OCc2cc(C(=O)NCCN3CCCc4ccccc43)no2)c(Cl)c1 | 35.5 µM [falling, single point] | –
4 | Cc1n[nH]c(C)c1S(=O)(=O)N1CCCC(C(=O)Nc2ccc3c(c2)OCCO3)C1 (stereo not drawn) | 4.61 µM [rising, partial curve, poor fit] | –
5 | COc1cc(/C=N/NC(=S)Nc2cccc(C(=O)O)c2)ccc1O | 1.46 µM [falling, full curve] | –
6 | COc1ccccc1NC(=O)COc1ccc(-c2nn(C)c(=O)c3ccccc23)cc1 | – | 10 µM [falling, partial curve]
7 | CC(C)C(=O)N1CCN(CCN2C(=O)c3cccc4cccc(c34)C2=O)CC1 | 1.58 µM [rising, full curve, poor fit] | –
8 | CCCn1c(=O)c2c(nc3n2CCCN3Cc2ccccc2)n(C)c1=O | 11.2 µM [falling, single point] | –
9 | Cc1ccc2oc(=O)n(Cc3ccccc3OC(C)C)c2c1 | 16.4 µM [falling, single point] | –
10 | O=C(CNc1cccc(Cl)c1)c1ccc(Br)cc1 | 35.5 µM [rising, partial curve, poor fit] | –
11 | C/C(CCC1CC(C)OC1=O)=N\NC(N)=O (stereo not drawn) | 0.891 µM [rising, full curve, poor fit] | –
12 | C/C(=N\NC(=O)c1nc(C)cc(C)n1)c1ccccc1 | 8.2 µM [falling, partial curve] | –
13 | O=[N+]([O-])c1ccc(-c2csc(Nc3ccccc3)[n+]2Cc2ccccc2)cc1 | 6.51 µM [rising, full curve, poor fit] | –
14 | COCC(C)n1c(C)cc(C(=O)CN2C(=O)NC(Cc3c[nH]c4ccccc34)C2=O)c1C (stereo not drawn) | 29.1 µM [rising, single point] | –
15 | Cc1cc(Cl)ccc1OCc1nc(-c2ccc(O)cc2)n[nH]1 | 18.4 µM [falling, single point] | –
16 | Cc1ccc(Cl)c(OC(=O)c2nn(C(C)C)c(=O)c3ccccc23)c1 | 29.1 µM [rising, single point] | –
17 | CN1C(=O)c2ccc(NC(=O)c3cccc(N4C(=O)CCC4=O)c3)cc2C1=O | 20 µM [falling, partial curve, poor fit] | –
18 | COC(=O)c1ccc(NC(=O)Nc2ccc(C)cc2)cc1 | 2.31 µM [falling, partial curve] | –

As entered above:
Under AC50 (measured here: IkBa-CBG green luminescence), `COc1ccccc1NC(=O)COc1ccc(-c2nn(C)c(=O)c3ccccc23)cc1` shows 10 µM [falling, partial curve]
Under AC50 [1], `CN1C(=O)c2ccc(NC(=O)c3cccc(N4C(=O)CCC4=O)c3)cc2C1=O` shows 20 µM [falling, partial curve, poor fit]
